Reference: paper PMC7251110
Results are given in words; binding and its absence hold for the method and conditions named. In cells and extracts the contact can be indirect. Some binding calls cover weakened binding; strength is not graded here. For some of these results: Sequences can lack the tags named with a protein.

Protein sequences, listed by entry. Tags and fused reporters are not part of them.
UniProt Q9H8M2: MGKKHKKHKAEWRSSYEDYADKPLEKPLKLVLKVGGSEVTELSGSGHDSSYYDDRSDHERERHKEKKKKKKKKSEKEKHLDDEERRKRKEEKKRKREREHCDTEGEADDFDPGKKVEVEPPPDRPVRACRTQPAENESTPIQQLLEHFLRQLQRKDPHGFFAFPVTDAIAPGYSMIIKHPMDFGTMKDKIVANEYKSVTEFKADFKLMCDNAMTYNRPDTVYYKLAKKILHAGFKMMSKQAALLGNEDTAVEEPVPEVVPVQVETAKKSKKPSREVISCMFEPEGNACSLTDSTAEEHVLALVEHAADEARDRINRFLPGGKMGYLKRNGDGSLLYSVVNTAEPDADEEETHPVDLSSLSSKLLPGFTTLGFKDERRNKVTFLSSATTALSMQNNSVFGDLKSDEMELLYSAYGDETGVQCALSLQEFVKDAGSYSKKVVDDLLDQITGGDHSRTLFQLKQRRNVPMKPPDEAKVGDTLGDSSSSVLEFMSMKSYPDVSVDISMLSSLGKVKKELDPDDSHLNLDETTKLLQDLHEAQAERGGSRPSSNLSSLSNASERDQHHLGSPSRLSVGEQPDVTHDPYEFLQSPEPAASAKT
UniProt Q06609: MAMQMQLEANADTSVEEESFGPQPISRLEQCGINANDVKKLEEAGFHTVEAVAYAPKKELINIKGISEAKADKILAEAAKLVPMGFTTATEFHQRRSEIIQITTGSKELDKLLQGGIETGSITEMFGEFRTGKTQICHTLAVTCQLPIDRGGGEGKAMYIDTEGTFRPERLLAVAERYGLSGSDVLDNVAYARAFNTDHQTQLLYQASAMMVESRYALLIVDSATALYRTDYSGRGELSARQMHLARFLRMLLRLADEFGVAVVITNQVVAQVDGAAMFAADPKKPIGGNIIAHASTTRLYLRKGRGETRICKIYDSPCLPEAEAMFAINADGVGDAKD

T1: RAD54-HA (wild type) (UniProt Q92698)
T1 sequence: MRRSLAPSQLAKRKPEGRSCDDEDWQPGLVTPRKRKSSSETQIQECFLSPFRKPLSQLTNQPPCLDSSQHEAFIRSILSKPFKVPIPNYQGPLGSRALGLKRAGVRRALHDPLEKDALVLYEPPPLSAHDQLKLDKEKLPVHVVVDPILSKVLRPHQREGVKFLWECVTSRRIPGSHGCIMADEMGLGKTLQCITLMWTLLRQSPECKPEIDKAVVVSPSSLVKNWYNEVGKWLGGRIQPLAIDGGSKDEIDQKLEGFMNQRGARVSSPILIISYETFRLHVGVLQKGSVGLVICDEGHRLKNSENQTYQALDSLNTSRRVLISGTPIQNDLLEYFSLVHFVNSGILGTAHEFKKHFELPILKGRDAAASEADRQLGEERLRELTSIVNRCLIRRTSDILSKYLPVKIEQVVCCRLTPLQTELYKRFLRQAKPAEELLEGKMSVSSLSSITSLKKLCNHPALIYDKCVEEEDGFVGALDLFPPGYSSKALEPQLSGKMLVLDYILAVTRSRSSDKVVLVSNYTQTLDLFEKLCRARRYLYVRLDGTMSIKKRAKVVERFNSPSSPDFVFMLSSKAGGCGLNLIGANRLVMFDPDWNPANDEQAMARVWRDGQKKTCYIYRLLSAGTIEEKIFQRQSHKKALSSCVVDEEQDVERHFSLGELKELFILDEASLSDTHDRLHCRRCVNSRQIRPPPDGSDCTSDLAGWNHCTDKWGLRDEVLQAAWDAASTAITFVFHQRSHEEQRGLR

T2: RAD54-HA K515R mutant (UniProt Q92698)
T2 sequence: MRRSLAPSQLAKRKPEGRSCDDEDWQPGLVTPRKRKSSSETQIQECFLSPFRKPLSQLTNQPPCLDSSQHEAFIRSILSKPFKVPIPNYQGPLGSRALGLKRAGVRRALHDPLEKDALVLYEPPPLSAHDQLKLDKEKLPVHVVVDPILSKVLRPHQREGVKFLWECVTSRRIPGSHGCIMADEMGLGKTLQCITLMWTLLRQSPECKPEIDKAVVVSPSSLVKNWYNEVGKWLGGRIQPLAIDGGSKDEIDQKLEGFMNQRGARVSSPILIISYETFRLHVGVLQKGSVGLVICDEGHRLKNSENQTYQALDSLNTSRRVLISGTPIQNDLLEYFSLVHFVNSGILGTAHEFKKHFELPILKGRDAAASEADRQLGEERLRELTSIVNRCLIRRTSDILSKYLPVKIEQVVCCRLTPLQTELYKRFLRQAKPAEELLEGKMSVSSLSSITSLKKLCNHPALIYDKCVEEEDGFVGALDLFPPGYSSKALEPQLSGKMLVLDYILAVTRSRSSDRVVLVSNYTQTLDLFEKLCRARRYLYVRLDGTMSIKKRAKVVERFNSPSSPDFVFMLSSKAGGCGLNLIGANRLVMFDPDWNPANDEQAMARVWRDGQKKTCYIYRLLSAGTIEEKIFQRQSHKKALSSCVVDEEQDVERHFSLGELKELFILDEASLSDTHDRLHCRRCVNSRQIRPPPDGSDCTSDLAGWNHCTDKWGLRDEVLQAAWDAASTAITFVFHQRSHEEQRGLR


Assays:
RAD54-HA (wild type) = target: T1, RAD54-HA (wild type); experiment: co-IP; 293T cells transfected with RAD54-HA (WT or K515R) and the indicated plasmids (GCN5, PCAF, HDAC6, HDAC11), no IR or 10-Gy IR, lysates after 8 h, anti-HA beads
RAD54-HA K515R mutant = target: T2, RAD54-HA K515R mutant; experiment: as above
[1] = target: BRD9 (untagged, detected or precipitated with anti-BRD9 antibody) (human (endogenous in OVCAR8 and 293T)) (UniProt Q9H8M2); experiment: co-IP; endogenous; OVCAR8 cells, 10-Gy IR, lysates after 8 h, anti-BRD9 antibody on protein A-Sepharose; NETN buffer, 4 °C
[2] = target: HA-tagged BRD9 (wild type) (UniProt Q9H8M2); experiment: co-IP; 293T cells transfected with HA-BRD9 constructs, with or without 10-Gy IR, anti-HA beads, blots for RAD51 and RAD54; NETN buffer, 4 °C
[3] = target: HA-tagged BRD9 (wild type) (UniProt Q9H8M2); experiment: co-IP; 293T cells transfected with the indicated constructs, exposed to BRD9i (I-BRD9) and 10-Gy IR, lysates after 8 h, anti-HA beads

binding (RAD54-HA (wild type))	binding (RAD54-HA K515R mutant)	binding [1]	binding [2]	Molecule	binding [3]
binds	no binding			BRD9 (untagged, detected or precipitated with anti-BRD9 antibody) (from UniProt Q9H8M2 1-597)	
		binds	binds	RAD51 (detected with anti-RAD51 antibody in cell lysates) (from UniProt Q06609 1-339)	
		binds	binds	RAD54 (detected with anti-RAD54 antibody in cell lysates) (protein, UniProt Q92698 1-747) MRRSLAPSQLAKRKPEGRSCDDEDWQPGLVTPRKRKSSSETQIQECFLSPFRKPLSQLTNQPPCLDSSQHEAFIRSILSKPFKVPIPNYQGPLGSRALGLKRAGVRRALHDPLEKDALVLYEPPPLSAHDQLKLDKEKLPVHVVVDPILSKVLRPHQREGVKFLWECVTSRRIPGSHGCIMADEMGLGKTLQCITLMWTLLRQSPECKPEIDKAVVVSPSSLVKNWYNEVGKWLGGRIQPLAIDGGSKDEIDQKLEGFMNQRGARVSSPILIISYETFRLHVGVLQKGSVGLVICDEGHRLKNSENQTYQALDSLNTSRRVLISGTPIQNDLLEYFSLVHFVNSGILGTAHEFKKHFELPILKGRDAAASEADRQLGEERLRELTSIVNRCLIRRTSDILSKYLPVKIEQVVCCRLTPLQTELYKRFLRQAKPAEELLEGKMSVSSLSSITSLKKLCNHPALIYDKCVEEEDGFVGALDLFPPGYSSKALEPQLSGKMLVLDYILAVTRSRSSDKVVLVSNYTQTLDLFEKLCRARRYLYVRLDGTMSIKKRAKVVERFNSPSSPDFVFMLSSKAGGCGLNLIGANRLVMFDPDWNPANDEQAMARVWRDGQKKTCYIYRLLSAGTIEEKIFQRQSHKKALSSCVVDEEQDVERHFSLGELKELFILDEASLSDTHDRLHCRRCVNSRQIRPPPDGSDCTSDLAGWNHCTDKWGLRDEVLQAAWDAASTAITFVFHQRSHEEQRGLR	no binding (condition: cells exposed to BRD9i (I-BRD9))
